Reference: US20220003782A1 (METAFORA BIOSYSTEMS, published 2022)
These are yes or no findings as the source states them, for the method shown. Some binding calls cover weakened binding; strength is not graded here. Tags and fused reporters may be left off the sequences shown.

Key:
[1] = target: T1, sodium-dependent multivitamin transporter / solute carrier family 5 member 6 (SMVT/SLC5A6) (human) (UniProt Q9Y289); assay: flow cytometry on HEK 293T cells with siLUC or siSMVT
T1 sequence: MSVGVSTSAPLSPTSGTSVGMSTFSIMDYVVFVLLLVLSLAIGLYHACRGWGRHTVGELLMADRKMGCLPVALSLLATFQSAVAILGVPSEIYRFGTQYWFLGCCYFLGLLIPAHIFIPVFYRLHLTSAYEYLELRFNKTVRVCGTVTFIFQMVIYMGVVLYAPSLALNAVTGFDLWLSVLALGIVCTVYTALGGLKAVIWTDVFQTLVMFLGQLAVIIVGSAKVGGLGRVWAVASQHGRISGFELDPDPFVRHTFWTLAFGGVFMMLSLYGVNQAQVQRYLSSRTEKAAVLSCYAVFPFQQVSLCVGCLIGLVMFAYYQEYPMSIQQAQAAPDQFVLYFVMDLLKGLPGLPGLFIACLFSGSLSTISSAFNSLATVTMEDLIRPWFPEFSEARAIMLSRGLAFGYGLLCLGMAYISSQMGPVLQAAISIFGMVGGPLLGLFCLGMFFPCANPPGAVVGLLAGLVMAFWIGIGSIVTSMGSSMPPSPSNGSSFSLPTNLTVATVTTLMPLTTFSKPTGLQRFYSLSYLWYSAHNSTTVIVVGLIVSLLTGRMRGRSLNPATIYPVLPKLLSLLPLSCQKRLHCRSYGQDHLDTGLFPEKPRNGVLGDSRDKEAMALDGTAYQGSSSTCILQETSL

[2] = target: T1, sodium-dependent multivitamin transporter / solute carrier family 5 member 6 (SMVT/SLC5A6) (human); assay: flow cytometry on HEK293T cells with siLUC or siSMVT A

B1: PERV-B RBD ligand fused to a mouse Fc fragment (SEQ ID NO: 13) (Fc fusion)
chain: KRLIDSSNPHRPLSLTWLIIDPDTGVTVNSTRGVAPRGTWWPELHFCLRLINPAVKSTPPNLVRSYGFYCCPGTEKEKYCGGSEESFCRRWSCVTSNDGDWKWPISLQDRVKFSFVNSGPGKYKVMKLYKDKSCSPSDLDYLKISFTEKGKQENIQKWINGMSWGIVFYKYGGGAGSTLTIRLRIEAGTEPPVAVGSVDVPRDCGCKPCICTVPEVSSVFIFPPKPKDVLTITLTPKVTCVVVDISKDDPEVQFSWFVDDVEVHTAQTQPREEQFNSTFRSVSELPIMHQDWLNGKEFKCRVNSAAFPAPIEKTISKTKGRPKAPQVYTIPPPKEQMAKDKVSLTCMITDFFPEDITVEWQWNGQPAENYKNTQPIMDTDGSYFVYSKLNVQKSNWEAGNTFTCSVLHEGLHNHHTEKSLSHSPGK
[1]
  binding: binds
[2]
  binding: binds
